PubChem BioAssay AID743454, Peter MacCallum Cancer Centre | 2014

- Test: 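Search for knock-downs that restore vorinostat killing in resistant colon cancer cells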 (primary screen)
- Cells: human HCT116-VR colon cancer cells, selected for vorinostat resistance
- Reagent: siRNA pool against human genes, 40 nM siRNA pool
- Time to read-out: vorinostat for 24 h, read-out about 72 h after transfection
- Conditions: vorinostat at 2.5 µM final
- Detection: 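Two measures, CellTiter-Fluor viability and luminescent caspase 3/7 activity, each as fold change against same-plate mock wells, mean of duplicates, then screen-wide robust z-score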
- Reading the numbers: viability robust z-score: higher = more viable cells than screen typical; caspase robust z-score: higher = more caspase 3/7 activity than screen typical
- Active means: 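Hits are knock-downs in viability class RV1/RV2 or caspase class CA1/CA2, excluding ones that killed cells in the no-drug cell-count arm; hits then retested with single siRNAs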
In all, the deposit lists about 18,000 reagents; below is a random part of them. Over the whole deposit, 450 (2.5%) were called active. 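Single biological run; no consistent viability z cut-off exists, so the class columns, not z-scores, define the calls.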 No sequences are given here.

no.	Gene	viability hit class	caspase hit class	viability robust z-score	caspase robust z-score	activity call
1	MAPK8	no change	no change	0.7	-0.41	inactive
2	SLC1A4	no change	no change	0.36	-0.8	inactive
3	SESN2	no change	no change	1.36	-0.62	inactive
4	MRPL51	no change	no change	0.56	-0.14	inactive
5	POTEB3	no change	no change	0.58	-0.75	inactive
6	SCN11A	no change	no change	-1.12	0.63	inactive
7	TSPAN33	no change	no change	0.32	-0.68	inactive
8	WDR37	no change	no change	-1.33	0.11	inactive
9	TGFB3	no change	no change	-0.46	-0.18	inactive
10	DSCR4	no change	no change	0.74	1.26	inactive
11	KCNC3	no change	no change	0.75	-0.64	inactive
12	DPH3	no change	no change	-0.3	0.29	inactive
13	OR8D2	no change	no change	-0.72	-0.06	inactive
14	DCTN6	no change	no change	-1.36	0.31	inactive
15	VPS35L	no change	no change	0.79	-0.07	inactive
16	TNKS2	no change	no change	0.4	-0.8	inactive
17	ME3	no change	no change	0.48	0.11	inactive
18	ASPNAT	no change	no change	-2.87	2.75	inactive
19	P3H3	no change	no change	-0.97	3.59	inactive
20	GOLM1	no change	no change	-0.01	-0.28	inactive
21	OR2L13	no change	no change	0.32	-0.92	inactive
22	CLCN5	no change	no change	0.24	-0.21	inactive

Already shown: an excerpt of the list.
no.	Gene	viability hit class	caspase hit class	viability robust z-score	caspase robust z-score	activity call
19	P3H3	no change	no change	-0.97	3.59	inactive
20	GOLM1	no change	no change	-0.01	-0.28	inactive

More reagents follow:
no.	Gene	viability hit class	caspase hit class	viability robust z-score	caspase robust z-score	activity call
23	RIT2	no change	no change	-0.78	0.1	inactive
24	HNF1B	no change	no change	-0.36	4.58	inactive
25	CTNND2	no change	no change	0.76	-0.32	inactive
26	PRKAR1B	no change	no change	-0.4	2.34	inactive
27	DUSP7	no change	no change	-0.01	-0.46	inactive
28	ASAP3	no change	no change	-1.85	0.6	inactive
29	ACTL7A	no change	no change	-0.82	-0.6	inactive
30	LIPM	no change	no change	-0.24	-0.66	inactive
31	UBE2NL	no change	no change	-1.27	-1.1	inactive
32	ATF5	no change	no change	-0.29	1.5	inactive
33	AKT1S1	no change	no change	0.59	0.16	inactive
34	COP1	no change	no change	-0.34	-0.48	inactive
35	ECSCR	no change	no change	0.54	-0.99	inactive
36	CHSY1	no change	no change	-0.2	1.79	inactive
37	KPNA5	no change	no change	0.04	0.96	inactive
38	RAB7B	no change	no change	-1.08	0.89	inactive
39	TNFAIP2	no change	no change	-0.64	0.84	inactive
